We go through five molecules from PMC11952666.

Protein sequences, listed by entry. Tags and fused reporters are not part of them.
UniProt Q9UKA4: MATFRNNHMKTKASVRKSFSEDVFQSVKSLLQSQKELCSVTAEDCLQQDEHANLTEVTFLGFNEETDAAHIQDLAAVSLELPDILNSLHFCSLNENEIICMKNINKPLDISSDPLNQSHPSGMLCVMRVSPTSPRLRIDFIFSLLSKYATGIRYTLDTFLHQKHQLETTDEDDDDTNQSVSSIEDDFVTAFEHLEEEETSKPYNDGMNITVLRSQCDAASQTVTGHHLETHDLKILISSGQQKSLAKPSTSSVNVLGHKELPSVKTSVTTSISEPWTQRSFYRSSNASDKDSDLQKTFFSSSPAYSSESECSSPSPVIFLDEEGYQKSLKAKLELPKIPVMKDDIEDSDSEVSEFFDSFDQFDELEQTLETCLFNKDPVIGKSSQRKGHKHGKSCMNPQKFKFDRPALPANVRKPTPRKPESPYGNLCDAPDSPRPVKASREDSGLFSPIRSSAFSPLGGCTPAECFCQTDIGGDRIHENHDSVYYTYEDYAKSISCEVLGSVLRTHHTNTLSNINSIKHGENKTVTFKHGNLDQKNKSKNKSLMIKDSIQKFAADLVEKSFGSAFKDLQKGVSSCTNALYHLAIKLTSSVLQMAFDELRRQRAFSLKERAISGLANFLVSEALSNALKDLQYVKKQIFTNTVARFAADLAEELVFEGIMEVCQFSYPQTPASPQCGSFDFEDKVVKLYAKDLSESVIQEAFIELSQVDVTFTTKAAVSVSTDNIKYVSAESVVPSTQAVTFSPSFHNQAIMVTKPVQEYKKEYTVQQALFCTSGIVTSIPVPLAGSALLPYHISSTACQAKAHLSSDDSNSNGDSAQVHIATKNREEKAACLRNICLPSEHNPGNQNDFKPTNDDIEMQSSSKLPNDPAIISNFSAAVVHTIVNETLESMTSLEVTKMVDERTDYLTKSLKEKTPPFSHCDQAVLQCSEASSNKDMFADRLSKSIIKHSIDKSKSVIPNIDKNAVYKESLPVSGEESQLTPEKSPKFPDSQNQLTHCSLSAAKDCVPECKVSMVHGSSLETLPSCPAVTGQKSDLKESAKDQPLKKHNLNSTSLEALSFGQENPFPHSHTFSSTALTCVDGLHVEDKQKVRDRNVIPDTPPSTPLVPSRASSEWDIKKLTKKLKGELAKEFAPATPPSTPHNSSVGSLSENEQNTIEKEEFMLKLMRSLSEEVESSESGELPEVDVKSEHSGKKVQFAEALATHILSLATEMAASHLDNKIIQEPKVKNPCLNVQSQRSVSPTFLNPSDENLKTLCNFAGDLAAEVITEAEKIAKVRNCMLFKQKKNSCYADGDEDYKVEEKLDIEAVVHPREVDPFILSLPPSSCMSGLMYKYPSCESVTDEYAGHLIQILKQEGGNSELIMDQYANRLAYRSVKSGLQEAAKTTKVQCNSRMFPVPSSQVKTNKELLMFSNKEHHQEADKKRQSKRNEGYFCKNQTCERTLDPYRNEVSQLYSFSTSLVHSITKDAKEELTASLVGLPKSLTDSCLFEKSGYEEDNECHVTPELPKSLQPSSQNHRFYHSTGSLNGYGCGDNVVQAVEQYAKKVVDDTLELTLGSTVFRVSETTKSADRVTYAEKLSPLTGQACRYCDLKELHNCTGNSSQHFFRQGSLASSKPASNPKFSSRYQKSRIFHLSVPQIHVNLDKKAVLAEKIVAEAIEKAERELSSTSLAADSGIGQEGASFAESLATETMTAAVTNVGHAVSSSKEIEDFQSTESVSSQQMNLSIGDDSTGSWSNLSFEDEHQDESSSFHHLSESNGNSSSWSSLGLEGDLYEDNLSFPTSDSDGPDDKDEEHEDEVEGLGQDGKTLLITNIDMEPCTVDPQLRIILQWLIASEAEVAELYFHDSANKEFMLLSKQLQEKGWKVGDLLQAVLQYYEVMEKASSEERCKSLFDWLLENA
UniProt Q6NSW3: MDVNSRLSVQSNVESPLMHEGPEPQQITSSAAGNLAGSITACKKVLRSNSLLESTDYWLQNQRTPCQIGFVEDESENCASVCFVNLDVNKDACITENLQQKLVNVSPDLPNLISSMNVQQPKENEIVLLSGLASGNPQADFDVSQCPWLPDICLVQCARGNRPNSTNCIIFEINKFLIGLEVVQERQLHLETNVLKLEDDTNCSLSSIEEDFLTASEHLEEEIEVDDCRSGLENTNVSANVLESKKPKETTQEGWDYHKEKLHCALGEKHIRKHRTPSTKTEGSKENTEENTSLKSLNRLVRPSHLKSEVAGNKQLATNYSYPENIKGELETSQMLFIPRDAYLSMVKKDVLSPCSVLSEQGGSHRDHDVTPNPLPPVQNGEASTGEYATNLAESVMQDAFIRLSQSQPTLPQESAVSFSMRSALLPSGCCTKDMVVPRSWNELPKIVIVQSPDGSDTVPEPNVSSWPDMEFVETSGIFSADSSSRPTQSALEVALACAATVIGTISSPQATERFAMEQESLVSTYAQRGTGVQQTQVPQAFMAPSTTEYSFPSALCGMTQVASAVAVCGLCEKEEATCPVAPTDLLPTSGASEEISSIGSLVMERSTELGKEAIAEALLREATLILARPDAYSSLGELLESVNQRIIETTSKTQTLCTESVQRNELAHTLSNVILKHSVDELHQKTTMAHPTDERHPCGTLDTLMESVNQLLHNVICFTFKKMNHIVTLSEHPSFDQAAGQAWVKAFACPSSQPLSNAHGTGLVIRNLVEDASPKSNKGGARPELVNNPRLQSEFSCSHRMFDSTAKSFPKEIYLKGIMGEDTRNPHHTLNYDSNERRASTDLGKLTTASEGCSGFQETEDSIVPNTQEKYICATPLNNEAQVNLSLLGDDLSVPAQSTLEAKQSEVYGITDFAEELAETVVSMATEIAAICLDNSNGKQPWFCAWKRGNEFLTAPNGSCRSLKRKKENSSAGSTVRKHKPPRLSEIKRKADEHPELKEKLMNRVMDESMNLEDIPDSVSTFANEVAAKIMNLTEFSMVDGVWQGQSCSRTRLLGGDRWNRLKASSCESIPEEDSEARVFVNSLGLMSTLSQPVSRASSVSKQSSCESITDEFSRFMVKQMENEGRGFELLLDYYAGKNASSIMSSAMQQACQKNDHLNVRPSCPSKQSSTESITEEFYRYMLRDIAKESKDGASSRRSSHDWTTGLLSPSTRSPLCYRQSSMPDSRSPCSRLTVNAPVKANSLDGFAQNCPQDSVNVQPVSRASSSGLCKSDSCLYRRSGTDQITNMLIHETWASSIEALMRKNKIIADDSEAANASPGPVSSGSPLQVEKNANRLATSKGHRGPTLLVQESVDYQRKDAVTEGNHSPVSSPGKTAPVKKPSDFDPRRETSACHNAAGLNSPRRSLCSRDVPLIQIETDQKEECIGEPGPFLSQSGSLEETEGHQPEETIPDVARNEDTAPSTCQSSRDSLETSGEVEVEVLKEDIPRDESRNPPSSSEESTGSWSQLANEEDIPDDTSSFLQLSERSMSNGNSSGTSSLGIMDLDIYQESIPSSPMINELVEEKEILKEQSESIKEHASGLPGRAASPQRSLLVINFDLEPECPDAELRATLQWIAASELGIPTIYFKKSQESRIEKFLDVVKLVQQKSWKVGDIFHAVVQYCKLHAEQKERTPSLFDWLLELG
UniProt P12849: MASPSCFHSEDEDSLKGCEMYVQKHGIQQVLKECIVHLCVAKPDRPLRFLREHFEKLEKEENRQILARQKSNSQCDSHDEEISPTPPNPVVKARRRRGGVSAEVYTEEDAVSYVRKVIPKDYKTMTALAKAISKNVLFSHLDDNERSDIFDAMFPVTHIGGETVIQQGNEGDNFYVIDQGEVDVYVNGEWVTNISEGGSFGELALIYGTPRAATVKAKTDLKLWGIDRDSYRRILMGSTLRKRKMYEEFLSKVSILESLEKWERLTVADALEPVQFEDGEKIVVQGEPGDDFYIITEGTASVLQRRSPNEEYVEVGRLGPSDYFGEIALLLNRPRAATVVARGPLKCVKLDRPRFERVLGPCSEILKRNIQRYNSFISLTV
UniProt Q9DBC7: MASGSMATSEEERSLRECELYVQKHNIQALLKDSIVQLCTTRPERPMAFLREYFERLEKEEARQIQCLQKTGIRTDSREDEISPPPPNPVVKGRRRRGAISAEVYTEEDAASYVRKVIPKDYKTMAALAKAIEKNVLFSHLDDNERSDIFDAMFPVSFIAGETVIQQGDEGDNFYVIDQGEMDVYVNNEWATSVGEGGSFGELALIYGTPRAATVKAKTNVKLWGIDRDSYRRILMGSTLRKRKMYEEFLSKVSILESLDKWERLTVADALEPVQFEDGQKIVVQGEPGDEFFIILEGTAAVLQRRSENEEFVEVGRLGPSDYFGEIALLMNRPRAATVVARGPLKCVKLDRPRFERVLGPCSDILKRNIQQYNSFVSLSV

No constants are given. Whether binding was seen depends on the method and setting. Binding seen in cells or lysates may run through a third protein. A yes stands for co-enrichment or nearness to the bait. Other partners may have been found.

This experiment has as its target AKAP11-eGFP fusion protein (UniProt Q9UKA4). Kind of experiment: affinity purification with mass spectrometry; anti-GFP affinity purification of AKAP11-eGFP from AKAP11-eGFP; Syn-cre mouse brain lysate against control; co-purified proteins by DIA mass spectrometry.

Take SPHKAP (from UniProt Q6NSW3 1-1687): the binding entry was “binds”.

For the molecule “PKA regulatory subunit RIβ (from UniProt P12849 1-381)”, the binding result was “binds”.

Turning to DYRK1A (from UniProt Q61214 1-763), the binding entry is reported as “binds”.

“PKA regulatory subunit RIα (from UniProt Q9DBC7 1-381)”: the binding result is reported as “binds”.

B1: VAPA (protein, UniProt Q9WV55 1-249)
chain: MASASGAMAKHEQILVLDPPSDLKFKGPFTDVVTTNLKLQNPSDRKVCFKVKTTAPRRYCVRPNSGIIDPGSIVTVSVMLQPFDYDPNEKSKHKFMVQTIFAPPNISDMEAVWKEAKPDELMDSKLRCVFEMPNENDKLNDMEPSKAVPLNASKQDGPLPKPHSVSLNDTETRKLMEECKRLQGEMMKLSEENRHLRDEGLRLRKVAHSDKPGSTSAVSFRDNVTSPLPSLLVVIAAIFIGFFLGKFIL
For B1, the binding entry is “binds”.
